Data: the supplement of paper PMC4604168 (melanoma cell lines)
The other results are listed elsewhere or left out. Many values rest on one well or one pass, so single values are uncertain.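 Imaging used 1,536-well plates; nuclei positive for cleaved PARP by antibody were divided by total DNA-stained nuclei to yield the apoptosis fraction. Doses for screening kept most cells viable, and cell lines differ markedly in resting and induced cleaved-PARP levels.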

Experiments:
Assay in all cases: cleaved PARP positive nuclei fraction relative to DMSO control; melanoma cells; higher = more apoptosis
Conditions in all cases: library dose: low library concentration; 72 h
501Mel = tested on: 501Mel
A101D = tested on: A101D
A2058 = tested on: A2058
C32 = tested on: C32
CBRC008 = tested on: CBRC008 (line from a melanoma biopsy)
CBRC014 = tested on: CBRC014 (line from a melanoma biopsy)
CBRC016 = tested on: CBRC016 (line from a melanoma biopsy)
CBRC017 = tested on: CBRC017 (line from a melanoma biopsy)
COLO792 = tested on: COLO792
COLO800 = tested on: COLO800
COLO829 = tested on: COLO829
G361 = tested on: G361
IPC-298 = tested on: IPC-298
IST-MEL1 = tested on: IST-MEL1
LB2518-MEL = tested on: LB2518-MEL
LOXIMVI = tested on: LOXIMVI

SMILES | cleaved PARP positive nuclei fraction (501Mel) [%] | cleaved PARP positive nuclei fraction (A101D) [%] | cleaved PARP positive nuclei fraction (A2058) [%] | cleaved PARP positive nuclei fraction (C32) [%] | cleaved PARP positive nuclei fraction (CBRC008) [%] | cleaved PARP positive nuclei fraction (CBRC014) [%] | cleaved PARP positive nuclei fraction (CBRC016) [%] | cleaved PARP positive nuclei fraction (CBRC017) [%] | cleaved PARP positive nuclei fraction (COLO792) [%] | cleaved PARP positive nuclei fraction (COLO800) [%] | cleaved PARP positive nuclei fraction (COLO829) [%] | cleaved PARP positive nuclei fraction (G361) [%] | cleaved PARP positive nuclei fraction (IPC-298) [%] | cleaved PARP positive nuclei fraction (IST-MEL1) [%] | cleaved PARP positive nuclei fraction (LB2518-MEL) [%] | cleaved PARP positive nuclei fraction (LOXIMVI) [%]
Cc1cc(Nc2cc(N3CCN(C)CC3)nc(Sc3ccc(NC(=O)C4CC4)cc3)n2)n[nH]1 [Tozasertib] + COC(=O)c1sccc1S(=O)(=O)Nc1ccc(Nc2ccccc2)cc1OC [GSK0660] (first compound 0.006 µM, partner dose 1 µM) | 70.7 | 29.5 | 54.7 | 116 | 50.2 | 96.4 | 72.8 | 99.1 | 113 | 106 | 159 | 148 | 142 | 68.1 | 140 | 146
CCCCCCCCCCCCCCCCCCOP(=O)([O-])OC1CC[N+](C)(C)CC1 [Perifosine] + c1cc(-c2cnn3cc(-c4ccc(OCCN5CCCCC5)cc4)cnc23)ccn1 [Dorsomorphin] (first compound 0.4 µM, partner dose 0.4 µM) | 86.3 | 20.6 | 137 | 170 | 496 | 547 | 99.1 | 91.4 | 58.4 | 86.6 | 106 | 279 | 88.7 | 152 | 83.3 | 203
O=c1[nH]nc(Sc2ncc([N+](=O)[O-])s2)n1-c1ccc2c(c1)OCCO2 + CC(C)CCN1c2nc(Nc3cc(F)c(O)c(F)c3)ncc2N(C)C(=O)C1C [BID1870] (first compound 0.2 µM, partner dose 0.2 µM) | 147 | 18.7 | 111 | 143 | 86.6 | 113 | 67.6 | 87 | 99.2 | 56 | 82.5 | 65.6 | 45.2 | 67.1 | 132 | 120
O=C(Nc1cc(C(F)(F)F)cc(C(F)(F)F)c1)c1cc(Cl)ccc1O + CCN(CC)CCCCNc1ncc2cc(-c3cc(OC)cc(OC)c3)c(NC(=O)NC(C)(C)C)nc2n1 [PD173074] (first compound 0.016 µM, partner dose 0.1 µM) | 76.4 | 28.4 | 63 | 200 | 123 | 76.1 | 37.7 | 64.1 | 135 | 142 | 74.3 | 68.6 | 96.4 | 66.6 | 185 | 22.3
N#CC[C@H](C1CCCC1)n1cc(-c2ncnc3[nH]ccc23)cn1 [ruxolitinib] + N#Cc1c(O)c2c(-c3ccc(-c4ccccc4O)cc3)csc2[nH]c1=O [A769662] (first compound 1 µM, partner dose 2 µM) | 68.7 | 12 | 97.9 | 74.4 | 102 | 119 | 88.9 | 231 | 105 | 18.5 | 41.6 | 109 | 45.4 | 133 | 59.3 | 55.5
CC[C@]1(O)C[C@H]2CN(CCc3c([nH]c4ccccc34)[C@@](C(=O)OC)(c3cc4c(cc3OC)N(C=O)[C@H]3[C@@](O)(C(=O)OC)[C@H](OC(C)=O)[C@]5(CC)C=CCN6CC[C@]43[C@@H]65)C2)C1 [vincristine] + CCc1ccc(CCOc2ccc(CC3SC(=O)NC3=O)cc2)nc1 [pioglitazone] (first compound 0.0001 µM, partner dose 2 µM) | 113 | 107 | 2230 | 342 | 161 | 109 | 75.2 | 98 | 145 | 45.4 | 145 | 233 | 211 | 105 | 128 | 64.3
CCCCCCCCCCCCCCCCCCOP(=O)([O-])OC1CC[N+](C)(C)CC1 [Perifosine] + Oc1nc(-c2ccc(C(F)(F)F)cc2)nc2c1CSCC2 [XAV939] (first compound 0.4 µM, partner dose 2 µM) | 65.3 | 13.9 | 180 | 69.9 | 155 | 93.5 | 844 | 63.2 | 114 | 68.6 | 61.1 | 97.4 | 88.5 | 86.2 | 68.5 | 94.7
Cc1cn(-c2cc(NC(=O)c3ccc(C)c(Nc4nccc(-c5cccnc5)n4)c3)cc(C(F)(F)F)c2)cn1 [nilotinib] + Oc1cc(-c2nc(-c3ccccc3)[nH]c2-c2ccncc2)ccc1Cl [L779450] (first compound 0.2 µM, partner dose 0.2 µM) | 93.2 | 49.5 | 87.4 | 88.5 | 96.4 | 112 | 70 | 84.5 | 133 | 102 | 113 | 158 | 44.4 | 57.8 | 149 | 74.2
Cc1cc(Nc2cc(N3CCN(C)CC3)nc(Sc3ccc(NC(=O)C4CC4)cc3)n2)n[nH]1 [Tozasertib] + Oc1cc(-c2nc(-c3ccccc3)[nH]c2-c2ccncc2)ccc1Cl [L779450] (first compound 0.006 µM, partner dose 0.2 µM) | 39.3 | 30.9 | 175 | 86 | 122 | 110 | 74.7 | 114 | 70.5 | 64.8 | 62.3 | 148 | 128 | 58.4 | 48.2 | 35.2
N#CC[C@H](C1CCCC1)n1cc(-c2ncnc3[nH]ccc23)cn1 [ruxolitinib] + O=C(O)C(=O)Nc1sc2c(c1C(=O)O)CCNC2 [TCS401] (first compound 1 µM, partner dose 1.66667 µM) | 70.8 | 23.5 | 72.3 | 31 | 367 | 225 | 143 | 112 | 202 | 49.7 | 142 | 88.3 | 91.8 | 107 | 66.3 | 191
O=c1[nH]nc(Sc2ncc([N+](=O)[O-])s2)n1-c1ccc2c(c1)OCCO2 + CCCCCCCCCCCC1=C(O)C(=O)C=C(O)C1=O [Embelin] (first compound 0.2 µM, partner dose 1.2 µM) | 61.3 | 11.7 | 43.1 | 54.6 | 34.1 | 92 | 38.4 | 120 | 102 | 69 | 61.2 | 94.1 | 145 | 113 | 73.8 | 61
Cc1ccc(Nc2nccc(N(C)c3ccc4c(C)n(C)nc4c3)n2)cc1S(N)(=O)=O [Pazopanib] + CCCCCCCCCCCC1=C(O)C(=O)C=C(O)C1=O [Embelin] (first compound 0.4 µM, partner dose 1.2 µM) | 65.1 | 14.2 | 157 | 39.8 | 118 | 112 | 64 | 96.4 | 64.3 | 94.7 | 59.7 | 84.5 | 45.5 | 101 | 196 | 48.4
Cc1cc(Nc2cc(N3CCN(C)CC3)nc(Sc3ccc(NC(=O)C4CC4)cc3)n2)n[nH]1 [Tozasertib] + CCN(CC)CCCCNc1ncc2cc(-c3cc(OC)cc(OC)c3)c(NC(=O)NC(C)(C)C)nc2n1 [PD173074] (first compound 0.006 µM, partner dose 0.1 µM) | 75.2 | 20.7 | 58.5 | 51 | 161 | 94.4 | 33.7 | 83.6 | 28.5 | 191 | 43.1 | 79.2 | 48.9 | 113 | 316 | 182
Cc1cn(-c2cc(NC(=O)c3ccc(C)c(Nc4nccc(-c5cccnc5)n4)c3)cc(C(F)(F)F)c2)cn1 [nilotinib] + COc1cc2ncnc(Nc3ccc(Oc4ccccc4)cc3)c2cc1OC [SrcI1] (first compound 0.2 µM, partner dose 2 µM) | 139 | 38.7 | 142 | 82.3 | 230 | 78.6 | 47.3 | 114 | 130 | 78.8 | 57 | 175 | 37.8 | 143 | 48.4 | 80.4
Cc1cn(-c2cc(NC(=O)c3ccc(C)c(Nc4nccc(-c5cccnc5)n4)c3)cc(C(F)(F)F)c2)cn1 [nilotinib] + O=C1NC(=O)/C(=C/c2ccc(-c3ccc(F)cc3O)o2)S1 [AS252424] (first compound 0.2 µM, partner dose 1 µM) | 106 | 20.3 | 129 | 127 | 355 | 80.7 | 123 | 121 | 117 | 48.9 | 130 | 16.8 | 66 | 91.5 | 65.2 | 144
Cc1cc(Nc2cc(N3CCN(C)CC3)nc(Sc3ccc(NC(=O)C4CC4)cc3)n2)n[nH]1 [Tozasertib] + c1cc(-c2cnn3cc(-c4ccc(OCCN5CCCCC5)cc4)cnc23)ccn1 [Dorsomorphin] (first compound 0.006 µM, partner dose 0.4 µM) | 76.6 | 55.7 | 156 | 39.9 | 79.3 | 101 | 18.8 | 114 | 38 | 70.2 | 134 | 87.9 | 275 | 228 | 167 | 103
Cc1ccc(Nc2nccc(N(C)c3ccc4c(C)n(C)nc4c3)n2)cc1S(N)(=O)=O [Pazopanib] + COc1cc2ncnc(Nc3ccc(Oc4ccccc4)cc3)c2cc1OC [SrcI1] (first compound 0.4 µM, partner dose 2 µM) | 74.8 | 21 | 120 | 161 | 173 | 101 | 82.9 | 79.5 | 86.2 | 32.9 | 42.2 | 200 | 112 | 116 | 58.5 | 217
CCCCCCCCCCCCCCCCCCOP(=O)([O-])OC1CC[N+](C)(C)CC1 [Perifosine] + COC(=O)c1sccc1S(=O)(=O)Nc1ccc(Nc2ccccc2)cc1OC [GSK0660] (first compound 0.4 µM, partner dose 1 µM) | 57.8 | 51.4 | 54.1 | 157 | 134 | 83.4 | 79.1 | 95.6 | 128 | 121 | 87.6 | 63.4 | 96 | 69 | 70.3 | 184

Part of the list above, limited to cleaved PARP positive nuclei fraction (A101D) [%]:
SMILES | cleaved PARP positive nuclei fraction (A101D) [%]
Cc1cn(-c2cc(NC(=O)c3ccc(C)c(Nc4nccc(-c5cccnc5)n4)c3)cc(C(F)(F)F)c2)cn1 [nilotinib] + Oc1cc(-c2nc(-c3ccccc3)[nH]c2-c2ccncc2)ccc1Cl [L779450] (first compound 0.2 µM, partner dose 0.2 µM) | 49.5
Cc1cc(Nc2cc(N3CCN(C)CC3)nc(Sc3ccc(NC(=O)C4CC4)cc3)n2)n[nH]1 [Tozasertib] + c1cc(-c2cnn3cc(-c4ccc(OCCN5CCCCC5)cc4)cnc23)ccn1 [Dorsomorphin] (first compound 0.006 µM, partner dose 0.4 µM) | 55.7
